PMC8500422
No constants are given. Whether binding was seen depends on the method and setting. Binding seen in cells or lysates may run through a third protein. Some binding calls cover weakened binding; strength is not graded here.

By UniProt entry, the sequences of proteins in these tests, tags left out. Where a name states a change or a piece, a line headed by the entry shows the natural chain unless it says otherwise. Chains listed by the source or under a name are the forms on record and can include a tag or linker. Residues count along the entry.
UniProt Q8IZL9: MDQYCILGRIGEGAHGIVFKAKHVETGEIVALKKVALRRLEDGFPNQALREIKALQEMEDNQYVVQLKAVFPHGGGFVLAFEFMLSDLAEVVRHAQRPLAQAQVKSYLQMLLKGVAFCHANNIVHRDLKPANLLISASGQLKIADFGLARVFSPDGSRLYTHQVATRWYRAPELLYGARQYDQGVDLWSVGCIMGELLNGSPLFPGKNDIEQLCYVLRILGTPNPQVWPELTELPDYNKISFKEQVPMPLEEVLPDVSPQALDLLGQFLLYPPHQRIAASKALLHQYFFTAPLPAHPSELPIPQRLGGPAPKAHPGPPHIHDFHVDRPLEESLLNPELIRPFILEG
EGFP-fused CCRK(1–330): residues 1-330 of Q8IZL9
EGFP-fused CCRK(1–289): residues 1-289 of Q8IZL9
EGFP-fused CCRK(290–346): residues 290-346 of Q8IZL9

Experiments:
[1] = molecular target: EGFP-fused CCRK(1–289) (human) (UniProt Q8IZL9); assay: co-IP; the beads of the VIP assay (EGFP-fused protein precipitated with GST-tagged anti-GFP Nb from HEK293T lysates) subjected to SDS-PAGE and immunoblotting with anti-mChe or anti-GFP antibody
[2] = molecular target: EGFP-fused CCRK(1–330) (human) (UniProt Q8IZL9); assay: as above
[3] = molecular target: EGFP-fused CCRK(290–346) (human) (UniProt Q8IZL9); assay: as above
[4] = molecular target: EGFP-fused CCRK(K33R) (human) (UniProt Q8IZL9); assay: as above
[5] = molecular target: EGFP-fused CCRK(WT) (human) (UniProt Q8IZL9); assay: as above
[6] = molecular target: EGFP-fused CCRK(1–330) (human) (UniProt Q8IZL9); assay: co-IP; visible immunoprecipitation (VIP) assay: lysates of HEK293T cells coexpressing EGFP-fused and mChe-fused proteins (HMDEKN buffer: 10 mM HEPES pH 7.4, 5 mM MgSO4, 1 mM DTT, 0.5 mM EDTA, 25 mM KCl, 0.05% NP-40), precipitated with GST-tagged anti-GFP Nb on glutathione–Sepharose 4B beads, 1 h at 4°C; red fluorescence on the washed beads observed under a microscope
[7] = molecular target: EGFP-fused CCRK(290–346) (human) (UniProt Q8IZL9); assay: as above
[8] = molecular target: EGFP-fused CCRK(K33R) (human) (UniProt Q8IZL9); assay: as above
[9] = molecular target: EGFP-fused CCRK(WT) (human) (UniProt Q8IZL9); assay: as above

B1: BROMI-mChe (protein, UniProt Q96NH3-4 1-1298)
chain: MAHFSSEDQAMLQAMLRRLFQSVKEKITGAPSLECAEEILLHLEETDENFHNYEFVKYLRQHIGNTLGSMIEEEMEKCTSDRNQGEECGYDTVVQQVTKRTQESKEYKEMMHYLKNIMIAVVESMINKFEEDETRNQERQKKIQKEKSHSYRTDNCSDSDSSLNQSYKFCQGKLQLILDQLDPGQPKEVRYEALQTLCSAPPSDVLNCENWTTLCEKLTVSLSDPDPVFSDRILKFCAQTFLLSPLHMTKEIYTSLAKYLESYFLSRENHIPTLSAGVDITNPNMTRLLKKVRLLNEYQKEAPSFWIRHPEKYMEEIVESTLSLLTVKHNQSHVVSQKILDPIYFFALVDTKAVWFKKWMHAHYSRTTVLRLLETKYKSLVTTAIQQCVQYFEMCKTRKADETLGHSKHCRNKQKTFYYLGQELQYIYFIHSLCLLGRLLIYKQGRKLFPIKLKNKKGLVSLIDLLVLFTQLIYYSPSCPKMTSAAHSENYSPASMVTEVLWILSDQKECAVECLYNNIVIETLLQPIHNLMKGNEASPNCSETALIHIAGILARIASVEEGLILLLYGANMNSSEESPTGAHIIAQFSKKLLDEDISIFSGSEMLPVVKGAFISVCRHIYSTCEGLQVLITYNLHESIAKAWKKTSLLSERIPTPVEGSDSVSSVSQESQNIMAWEDNLLDDLLHFAATPKGLLLLQRTGAINECVTFIFNRYAKKLQVSRHKKFGYGVLVTRVASTAAGGIALKKSGFINELITELWSNLEYGRDDVRVTHPRTTPVDPIDRSCQKSFLALVNLLSYPAIYELVRNQDLPNKTEYSLREVPTCVIDIIDRLIILNSEAKIRSLFNYEQSHIFGLRLLSVICCDLDTLLLLEAQYQVSEMLLNAQEENILEISESHRDFIIDGLSVERNHVLVRINLVGGPLERILPPRLLEKSDNPYPWPMFSSYPLPNCYLSDITRNAGIKQDNDLDKLLLCLKISDKQTEWIENCQRQFCKMMKAKPDIISGEALIELLEKFVLHLTESPSECYFPSVEYTATDANVKNESLSSVQQLGIKMTVRYGKFLSLLKDGAENDLTWVLKHCERFLKQQQTSIKSSLLCLQGNYAGHDWFVSSLFMIMLGDKEKTFQFLHQFSRLLTSAFLWLPRLHISSYLPNDTVESGIHPVYFCSTHYIEMLLKAELPLVFSAFHMSGFAPSQICLQWITQCFWNYLDWIEICHYIATCVFLGPDYQVYICIAVFKHLQQDILQHTQTQDLQVFLKEEALHGFRVSDYFEYMEILEQNYRTVLLRDMRNIRLQST
With B1 the binding [1] was “no binding”, the binding [2] was “no binding” and the binding [3] was “binds”. The binding [4] was “binds”, the binding [5] was “binds” and the binding [6] was “no binding”. For the same binder, the binding [7] was “binds”, the binding [8] was “binds” and the binding [9] was “binds”.
